The source gives many values for each of these; only a part stands here.
Test system: L. major lysate proteins
Assay: Multitargeted bead mixture chemoproteomics, single concentration competition, proteome-wide
Assay type: binding
Conditions: for fold change: vehicle control = 1

With `Nc1nc2cccc(-c3ccccc3)c2n1Cc1ccc(Cl)c(Cl)c1` [compound 3] as the compound, how does the fold change (protein LMJF.11.0630 AMINOPEPTIDASE, PUTATIVE,METALLO-PEPTIDASE, CLAN MF, FAMILY M17) read?
The fold change was 1.14.

What about the fold change (protein LMJF.11.1160 PROTEIN TRANSPORT PROTEIN SEC31, PUTATIVE) of the same compound?
The fold change was 0.96.

What about the fold change (protein LMJF.12.0030 […]-1 SUBUNIT, PUTATIVE) of the same compound?
Its fold change is 1.11.

And the fold change (protein LMJF.12.0530 GLUCOSE-6-PHOSPHATE ISOMERASE)?
The fold change was 1.16.

What about the fold change (protein LMJF.12.0670 […] OXIDASE SUBUNIT IV) of the same compound?
The fold change was 0.99.

And the fold change (protein LMJF.13.0570 40S RIBOSOMAL PROTEIN S12, PUTATIVE)?
Its fold change is 0.97.

What about the fold change (protein LMJF.13.1190 ADENYL[…], PUTATIVE) of the same compound?
The fold change was 0.94.

And the fold change (protein LMJF.13.1660 CHAPERONIN TCP20, PUTATIVE)?
Its fold change is 1.06.

And the “fold change vs vehicle control” value (protein LMJF.14.0190 HY[…], CONSERVED)?
Its value is 0.96.

What about the fold change (protein LMJF.14.0460 CYS[…]-LYASE-LIKE PROTEIN) of the same compound?
Its fold change is 0.96.

And the fold change (protein LMJF.14.0680 FATTY ACID ELONGASE, PUTATIVE)?
Its fold change is 1.17.

And the fold change (protein LMJF.14.1160 ENOLASE)?
Its fold change is 1.08.

And the fold change (protein LMJF.14.1440 HY[…], CONSERVED)?
The fold change was 1.03.

And the fold change (protein LMJF.15.0190 HY[…], CONSERVED)?
The fold change was 1.06.

And the fold change (protein LMJF.15.1160 TR[…])?
The fold change was 1.1.

What about the “fold change vs vehicle control” value (protein LMJF.15.1380 NUCLEOLAR RNA BINDING PROTEIN, PUTATIVE) of the same compound?
The value was 1.07.

What about the fold change (protein LMJF.16.0760 TRANSALDOLASE, PUTATIVE) of the same compound?
Its fold change is 1.1.

What about the fold change (protein LMJF.16.0940 DYNEIN LIGHT CHAIN, PUTATIVE) of the same compound?
The fold change was 0.97.

And the fold change (protein LMJF.17.0081 […] 1-ALPHA)?
The fold change was 1.06.

And the fold change (protein LMJF.17.0980 HY[…], CONSERVED)?
The fold change was 1.

And the fold change (protein LMJF.18.0210 HY[…], CONSERVED)?
Its fold change is 1.11.

What about the fold change (protein LMJF.18.0580 P[…]-COA HYDRATASE, PUTATIVE) of the same compound?
The fold change was 0.97.

What about the fold change (protein LMJF.18.0680 CITRATE SYNTHASE, PUTATIVE) of the same compound?
Its fold change is 1.

And the fold change (protein LMJF.18.0740 […] TU, PUTATIVE)?
Its fold change is 0.96.

What about the fold change (protein LMJF.18.1010 DYNEIN LIGHT CHAIN 2B, CYTOPLASMIC, PUTATIVE) of the same compound?
Its fold change is 1.

What about the “fold change vs vehicle control” value (protein LMJF.18.1210 PROLYL-TRNA SYNTHETASE, PUTATIVE,BI[…]-TRNA SYNTHETASE, PUTATIVE) of the same compound?
Its value is 1.07.

And the fold change (protein LMJF.18.1380 PYRUVATE DEHYDROGENASE E1 COMPONENT ALPHA SUBUNIT, PUTATIVE)?
Its fold change is 1.01.

What about the fold change (protein LMJF.19.0100 FIBRILLARIN, PUTATIVE) of the same compound?
The fold change was 0.85.

And the “fold change vs vehicle control” value (protein LMJF.19.0710 […] DEHYDROGENASE)?
The value was 1.45.

What about the fold change (protein LMJF.19.0750 HY[…], CONSERVED) of the same compound?
The fold change was 0.95.

What about the fold change (protein LMJF.19.0995 4-COUMARATE:COA LIGASE-LIKE PROTEIN) of the same compound?
The fold change was 1.16.

And the fold change (protein LMJF.19.1010 HY[…], CONSERVED)?
The fold change was 1.26.

What about the fold change (protein LMJF.19.1420 CYSTEINE PEPTIDASE A (CPA)) of the same compound?
Its fold change is 0.98.

And the fold change (protein LMJF.19.1560 INOSINE-5'-MONOPHOSPHATE DEHYDROGENASE)?
The fold change was 1.08.

What about the “fold change vs vehicle control” value (protein LMJF.19.1620 POTASSIUM VOLTAGE-GATED CHANNEL, PUTATIVE) of the same compound?
The value was 1.06.

And the fold change (protein LMJF.21.0280 HY[…], CONSERVED)?
The fold change was 1.15.

And the fold change (protein LMJF.21.0540 LA RNA BINDING PROTEIN, PUTATIVE)?
The fold change was 1.27.

What about the fold change (protein LMJF.21.1090 T-COMPLEX PROTEIN 1, DELTA SUBUNIT, PUTATIVE) of the same compound?
The fold change was 1.

What about the “fold change vs vehicle control” value (protein LMJF.21.1552 RNA HELICASE, PUTATIVE) of the same compound?
The value was 1.09.

What about the fold change (protein LMJF.21.1710 […] OXIDASE SUBUNIT VI, PUTATIVE) of the same compound?
The fold change was 0.92.

What about the fold change (protein LMJF.21.1830 […] 5 SUBUNIT, PUTATIVE) of the same compound?
The fold change was 1.21.

And the fold change (protein LMJF.22.0420 40S RIBOSOMAL PROTEIN S15, PUTATIVE)?
The fold change was 1.1.

And the fold change (protein LMJF.22.1360 FARNESYL PYR[…])?
Its fold change is 0.95.

And the fold change (protein LMJF.22.1450 CYCLOPHILIN 6, PUTATIVE)?
Its fold change is 0.98.

And the fold change (protein LMJF.23.0040 PEROXIDOXIN)?
The fold change was 1.01.

What about the fold change (protein LMJF.23.0200 ENDORI[…]-PSP (PB5), PUTATIVE) of the same compound?
The fold change was 0.98.

And the fold change (protein LMJF.23.0560 KINESIN, PUTATIVE)?
Its fold change is 0.88.

What about the fold change (protein LMJF.25.1710 PYRUVATE DEHYDROGENASE E1 BETA SUBUNIT, PUTATIVE) of the same compound?
The fold change was 1.07.

And the fold change (protein LMJF.26.0280 HY[…], CONSERVED)?
The fold change was 1.26.

And the fold change (protein LMJF.26.0830 […], PUTATIVE)?
Its fold change is 0.79.

And the fold change (protein LMJF.27.0190 […] 7 SUBUNIT, PUTATIVE)?
The fold change was 1.06.

And the fold change (protein LMJF.27.0560 PROTEIN KINASE, PUTATIVE,CDC2-RELATED KINASE, PUTATIVE)?
The fold change was 1.07.

What about the fold change (protein LMJF.27.0760 GTP-binding protein homologue) of the same compound?
The fold change was 1.06.

What about the fold change (protein LMJF.27.0930 ISOVALERYL-COA DEHYDROGENASE, PUTATIVE) of the same compound?
The fold change was 1.11.

What about the fold change (protein LMJF.27.1260 T-COMPLEX PROTEIN 1, BETA SUBUNIT, PUTATIVE) of the same compound?
The fold change was 1.01.

And the fold change (protein LMJF.27.1300 HY[…], CONSERVED)?
Its fold change is 1.07.

What about the fold change (protein LMJF.27.1390 60S ACIDIC RIBOSOMAL SUBUNIT PROTEIN, PUTATIVE) of the same compound?
The fold change was 1.14.

And the fold change (protein LMJF.27.2330 GTP BINDING PROTEIN, PUTATIVE)?
The fold change was 1.11.

And the fold change (protein LMJF.28.0960 40S RIBOSOMAL PROTEIN S14)?
Its fold change is 1.22.

What about the fold change (protein LMJF.28.2260 […] PROTEIN, PUTATIVE) of the same compound?
Its fold change is 1.12.

What about the fold change (protein LMJF.28.2420 2-OXOGLUTARATE DEHYDROGENASE, E2 COMPONENT, DIHYDROLIPOAMIDE SUCCINYLTRANSFERASE, PUTATIVE) of the same compound?
The fold change was 0.94.

What about the fold change (protein LMJF.28.2430 VACUOLAR ATP SYNTHASE SUBUNIT B, PUTATIVE) of the same compound?
Its fold change is 0.9.
